# Test results from paper PMC8931434.
# T1: Ceramide synthase 2 (mouse) (UniProt Q924Z4)
# T1 sequence: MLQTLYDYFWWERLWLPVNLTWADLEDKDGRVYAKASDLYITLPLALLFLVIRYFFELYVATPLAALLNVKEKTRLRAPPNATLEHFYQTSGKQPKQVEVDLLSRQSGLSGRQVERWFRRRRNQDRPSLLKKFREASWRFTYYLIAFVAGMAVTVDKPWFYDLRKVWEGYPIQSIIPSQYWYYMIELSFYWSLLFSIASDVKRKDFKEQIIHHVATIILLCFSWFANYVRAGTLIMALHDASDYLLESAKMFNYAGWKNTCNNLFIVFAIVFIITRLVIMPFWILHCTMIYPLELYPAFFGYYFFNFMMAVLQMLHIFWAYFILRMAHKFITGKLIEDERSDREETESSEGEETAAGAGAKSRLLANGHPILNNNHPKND
# B1: 3-ketoacyl-CoA thiolase, mitochondrial (protein, UniProt Q8BWT1 1-397)
# chain: MALLRGVFIVAAKRTPFGAYGGLLKDFSATDLTEFAARAALSAGKVPPETIDSVIVGNVMQSSSDAAYLARHVGLRVGVPTETGALTLNRLCGSGFQSIVSGCQEICSKDAEVVLCGGTESMSQSPYCVRNVRFGTKFGLDLKLEDTLWAGLTDQHVKLPMGMTAENLAAKYNISREDCDRYALQSQQRWKAANEAGYFNEEMAPIEVKTKKGKQTMQVDEHARPQTTLEQLQKLPSVFKKDGTVTAGNASGVSDGAGAVIIASEDAVKKHNFTPLARVVGYFVSGCDPTIMGIGPVPAINGALKKAGLSLKDMDLIDVNEAFAPQFLSVQKALDLDPSKTNVSGGAIALGHPLGGSGSRITAHLVHELRRRGGKYAVGSACIGGGQGIALIIQNTA
# B2: Maleylacetoacetate isomerase (protein, UniProt Q9WVL0 1-216)
# chain: MQAGKPILYSYFRSSCSWRVRIALALKGIDYEIVPINLIKDGGQQFTEEFQTLNPMKQVPALKIDGITIVQSLAIMEYLEETRPIPRLLPQDPQKRAIVRMISDLIASGIQPLQNLSVLKQVGQENQMQWAQKVITSGFNALEKILQSTAGKYCVGDEVSMADVCLVPQVANAERFKVDLSPYPTISHINKELLALEVFQVSHPRRQPDTPAELRT
# B3: Peroxiredoxin-6 (protein, UniProt O08709 1-224)
# chain: MPGGLLLGDEAPNFEANTTIGRIRFHDFLGDSWGILFSHPRDFTPVCTTELGRAAKLAPEFAKRNVKLIALSIDSVEDHLAWSKDINAYNGETPTEKLPFPIIDDKGRDLAILLGMLDPVEKDDNNMPVTARVVFIFGPDKKLKLSILYPATTGRNFDEILRVVDSLQLTGTKPVATPVDWKKGESVMVVPTLSEEEAKQCFPKGVFTKELPSGKKYLRYTPQP
# B4: Carbonic anhydrase 3 (protein, UniProt P16015 1-260)
# chain: MAKEWGYASHNGPDHWHELYPIAKGDNQSPIELHTKDIKHDPSLQPWSASYDPGSAKTILNNGKTCRVVFDDTYDRSMLRGGPLSGPYRLRQFHLHWGSSDDHGSEHTVDGVKYAAELHLVHWNPKYNTFGEALKQPDGIAVVGIFLKIGREKGEFQILLDALDKIKTKGKEAPFTHFDPSCLFPACRDYWTYHGSFTTPPCEECIVWLLLKEPMTVSSDQMAKLRSLFSSAENEPPVPLVGNWRPPQPVKGRVVRASFK
# B5: Hydroxymethylglutaryl-CoA synthase, mitochondrial (protein, UniProt P54869 38-508)
# chain: TIPPAPLAKTDTWPKDVGILALEVYFPAQYVDQTDLEKFNNVEAGKYTVGLGQTRMGFCSVQEDINSLCLTVVQRLMERTKLPWDAVGRLEVGTETIIDKSKAVKTVLMELFQDSGNTDIEGIDTTNACYGGTASLFNAANWMESSYWDGRYALVVCGDIAVYPSGNARPTGGAGAVAMLIGPKAPLVLEQGLRGTHMENAYDFYKPNLASEYPLVDGKLSIQCYLRALDRCYAAYRKKIQNQWKQAGNNQPFTLDDVQYMIFHTPFCKMVQKSLARLMFNDFLSSSSDKQNNLYKGLEAFRGLKLEETYTNKDVDKALLKASLDMFNQKTKASLYLSTNNGNMYTSSLYGCLASLLSHHSAQELAGSRIGAFSYGSGLAASFFSFRVSKDASPGSPLEKLVSSVSDLPKRLDSRRRMSPEEFTEIMNQREQFYHKVNFSPPGDTSNLFPGTWYLERVDEMHRRKYARCPV
# B6: Betaine–homocysteine S-methyltransferase 1 (protein, UniProt O35490 1-407)
# chain: MAPVAGKKAKKGILERLNAGEVVIGDGGFVFALEKRGYVKAGPWTPEAAVEHPEAVRQLHREFLRAGSNVMQTFTFYASEDKLENRGNYVAEKISGQKVNEAACDIARQVADEGDALVAGGVSQTPSYLSCKSEVEVKKIFRQQLEVFMKKNVDFLIAEYFEHVEEAVWAVEALKASGKPVAATMCIGPEGDLHGVPPGECAVRLVKAGASIVGVNCHFDPSVSLQTVKLMKEGLEAARLKAYLMSQPLAYHTPDCGKQGFIDLPEFPFGLEPRVATRWDIQKYAREAYNLGVRYIGGCCGFEPYHIRAIAEELAPERGFLPPASEKHGSWGSGLDMHTKPWIRARARKEYWQNLRIASGRPYNPSMSRPDAWGVTKGAAELMQQKEATTEQQLRELFEKQKFKSAQ
# B7: Formimidoyltransferase-cyclodeaminase (protein, UniProt Q91XD4 1-541)
# chain: MSQLVECVPNFSEGNNQEVIDAISRAISQTPGCVLLDVDAGPSTNRTVYTFVGQPECVVEGALHAARTASQLIDMSKHKGEHPRMGALDVCPFIPVRGVSMEECVLCAKAFGQRLAEELNVPVYLYGEAAQTPSRQTLPAIRAGEYEALPEKLKQAEWVPDFGPSSFVPSWGATVTGARKFLIAFNINLLSTKEQAHRIALNLREQGRGKDQPGRLKKVQGIGWYLEEKNLAQVSTNLLDFEVTALHTVFEEARREAQELNLPVVGSQLVGLVPLKALLDAAAFYCDKEKLFVLEEEHRIRLVVNRLGLDSLAPFDPKERIIEYLVPDSGPEQSLLDTSLRGFVREVGARSAAPGGGSVAAAVAALGAALASMVGQMTYGRRQFDHLDSTMRRLIPPFHAASAQLTSLVDADARAFAACLEAIKLPKNTPEERDRRACALQEGLRQAVAVPLKLAETVSQLWPALQELAHCGNLSCLSDLQVAAKALETGVFGAYFNVLINLKDMTDDVFKEKTHHRISSLLQEAKTQAALVLGSLEARKE
# B8: Cytochrome P450 2F2 (protein, UniProt P33267 1-491)
# chain: MDGVSTAILLLLLAVISLSLTFSSRGKGQLPPGPKPLPILGNLLQLRSQDLLTSLTKLSKEYGSVFTVYLGSRPVIVLSGYQTVKEALVDKGEEFSGRGAYPVFFNFTRGNGIAFSDGERWKILRRFSVQILRNFGMGKRSIEERILEEGSFLLEVLRKMEGKPFDPVFILSRSVSNIICSVVFGSRFDYDDERLLTIIHFINDNFKIMSSPWGEMYNIFPSVLDWIPGPHKRLFRNFGGMKDLIARSVREHQDSLDPNSPRDFIDCFLTKMAQEKQDPLSHFNMDTLLMTTHNLLFGGTETVGTTLRHAFLILMKYPKVQARVQEEIDRVVGRSRMPTLEDRTSMPYTDAVIHEVQRFADVIPMNLPHRVTRDTPFRGFLIPKGTDVITLLNTVHYDSDQFKTPQEFNPEHFLDDNHSFKKSPAFMPFSAGRRLCLGEPLARMELFIYFTSILQNFTLQPLVDPEDIDLTPLSSGLGNLPRPFQLCMHIR
# Target: T1, Ceramide synthase 2 (mouse)
# Test: affinity purification with mass spectrometry; rabbit anti-CerS2 antibody and protein A agarose on WT mouse liver homogenate (150 mM NaCl, 20 mM Hepes pH 7.5, 1% digitonin, 4 °C), LC-MS/MS, compared with CerS2 null mouse liver; three mice per group
row,binding,Binder
1,binds,B1
2,binds,B2
3,binds,B3
4,binds,B4
5,binds,B5
6,binds,B6
7,binds,B7
8,binds,B8

# These are yes or no findings as the source states them, for the method shown. Binding seen in cells or lysates may run through a third protein. Here binding means that the protein was enriched with, or labelled near, the bait; the list need not be complete.
